Results are given in words; binding and its absence hold for the method and conditions named. In cells and extracts the contact can be indirect. Some results given as binding are weak or reduced against the parent protein; the word gives no strength.

The chains behind the UniProt entries cited, without tags or fusion partners.
UniProt P08753: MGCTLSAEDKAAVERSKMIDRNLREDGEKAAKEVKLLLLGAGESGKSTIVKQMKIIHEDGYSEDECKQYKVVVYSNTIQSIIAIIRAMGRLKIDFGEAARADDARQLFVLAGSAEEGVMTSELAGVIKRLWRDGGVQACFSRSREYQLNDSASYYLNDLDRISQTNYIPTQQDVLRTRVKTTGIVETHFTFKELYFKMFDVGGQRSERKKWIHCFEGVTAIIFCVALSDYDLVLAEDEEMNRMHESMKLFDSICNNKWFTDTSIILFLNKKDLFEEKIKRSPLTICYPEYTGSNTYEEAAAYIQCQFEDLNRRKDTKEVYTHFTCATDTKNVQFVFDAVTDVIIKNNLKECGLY

The target in test [1] is T1, Gα-interacting protein (GAIP) (UniProt P49795).
T1 sequence: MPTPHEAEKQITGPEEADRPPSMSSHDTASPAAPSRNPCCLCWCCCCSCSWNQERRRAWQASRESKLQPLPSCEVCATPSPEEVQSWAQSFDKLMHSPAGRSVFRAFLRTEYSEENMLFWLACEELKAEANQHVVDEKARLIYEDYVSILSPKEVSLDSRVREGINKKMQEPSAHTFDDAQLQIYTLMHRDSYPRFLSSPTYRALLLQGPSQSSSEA
Nature of the test: pull-down.

Test [2] concerns the target T2, activator of G-protein signaling 3 (AGS3) (UniProt Q86YR5).
T2 sequence: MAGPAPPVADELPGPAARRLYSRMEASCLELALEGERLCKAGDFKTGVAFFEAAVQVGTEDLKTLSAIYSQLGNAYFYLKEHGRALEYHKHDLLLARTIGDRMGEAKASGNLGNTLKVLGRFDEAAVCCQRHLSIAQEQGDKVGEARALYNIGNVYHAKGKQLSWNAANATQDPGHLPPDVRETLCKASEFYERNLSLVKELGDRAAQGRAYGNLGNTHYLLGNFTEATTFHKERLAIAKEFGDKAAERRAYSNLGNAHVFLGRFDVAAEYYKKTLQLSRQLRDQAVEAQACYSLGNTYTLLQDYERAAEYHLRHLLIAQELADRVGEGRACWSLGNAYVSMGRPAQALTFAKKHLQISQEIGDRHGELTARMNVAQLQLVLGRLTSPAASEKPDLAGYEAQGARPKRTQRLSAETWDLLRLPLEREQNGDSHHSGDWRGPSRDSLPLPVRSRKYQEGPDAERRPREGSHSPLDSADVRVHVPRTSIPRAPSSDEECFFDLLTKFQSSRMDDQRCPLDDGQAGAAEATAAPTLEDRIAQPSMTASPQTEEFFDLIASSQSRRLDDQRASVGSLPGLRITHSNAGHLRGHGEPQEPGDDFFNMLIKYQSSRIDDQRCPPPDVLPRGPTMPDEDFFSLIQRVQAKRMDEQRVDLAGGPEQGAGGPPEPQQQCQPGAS
Kind of test: pull-down.

With “Gαi3-FLAG, non-phosphorylated (from UniProt P08753 1-354)”, the binding entry in test [1] and in test [2] was “binds” throughout.

With “Gαi3-FLAG, phosphotyrosinated (induced by EGF) (from UniProt P08753 1-354)”, the binding entry in test [1] and in test [2] was “binds” throughout.

Values taken from article doi:10.1101/2022.09.11.507491.
